From article PMC13183915, “A platinum butterfly effect: small changes turn an anticancer drug into a non-toxic metalloantibiotic with in vivo efficacy” (npj Antimicrobials and Resistance, 2026)

Test system: MRSA
Experiment: Antibiotic uptake assay (ICP-MS of cellular Pt)
Assay type: cell-based, S. aureus
Conditions: 1.56 µM Pt1, 6.25 µM Pt8, 100 µM CisPt

N.N.[Cl][Pt][Cl] [CisPt, cisplatin]
Percent Pt content of MRSA cell lysate (% Pt) (60 min treatment): 0.03 ± 0.02% | absolute amounts of platinum in bacteria after treatment (MRSA): 2.6 µg/L
